The assay addresses T1, coagulation factor XIII A subunit after cleavage by thrombin (activation peptide FXIII-AP cut off at Arg37-Gly38) (human) (UniProt P00488).
T1 sequence: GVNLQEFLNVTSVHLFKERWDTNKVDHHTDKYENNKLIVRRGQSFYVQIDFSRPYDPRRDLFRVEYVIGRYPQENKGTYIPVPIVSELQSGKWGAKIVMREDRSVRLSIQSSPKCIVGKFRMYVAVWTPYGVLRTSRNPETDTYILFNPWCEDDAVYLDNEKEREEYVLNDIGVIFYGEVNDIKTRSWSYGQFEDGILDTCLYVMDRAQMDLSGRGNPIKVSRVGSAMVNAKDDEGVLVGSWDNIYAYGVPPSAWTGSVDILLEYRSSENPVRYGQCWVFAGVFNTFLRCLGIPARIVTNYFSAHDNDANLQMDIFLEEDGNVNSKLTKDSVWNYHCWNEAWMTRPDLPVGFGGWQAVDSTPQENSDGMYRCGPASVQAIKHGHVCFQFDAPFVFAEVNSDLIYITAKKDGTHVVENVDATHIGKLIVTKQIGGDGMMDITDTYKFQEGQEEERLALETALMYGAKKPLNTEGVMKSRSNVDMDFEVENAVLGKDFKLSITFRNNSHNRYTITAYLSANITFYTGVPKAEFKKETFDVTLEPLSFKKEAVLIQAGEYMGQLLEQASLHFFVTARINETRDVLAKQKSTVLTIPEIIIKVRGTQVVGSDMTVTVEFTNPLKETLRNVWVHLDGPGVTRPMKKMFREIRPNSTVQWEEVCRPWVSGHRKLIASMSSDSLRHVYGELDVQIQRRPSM
Put plainly: condition: only with 25 mM CaCl2 after thrombin cleavage; SEC; 25 ug purified FXIIIA2B2 incubated with 46.2 U/mL thrombin and 25 mM CaCl2, 20 mM Tris, 120 mM NaCl, pH 7.4, 60 minutes at 30 degrees; Superdex 200 PC 3.2/30; peaks checked by native PAGE and mass spectrometry; both purified.

Results are given in words; binding and its absence hold for the method and conditions named.

B1: coagulation factor XIII B subunit (natural protein, human, UniProt P05160 21-661, looked up)
chain: EEKPCGFPHVENGRIAQYYYTFKSFYFPMSIDKKLSFFCLAGYTTESGRQEEQTTCTTEGWSPEPRCFKKCTKPDLSNGYISDVKLLYKIQENMRYGCASGYKTTGGKDEEVVQCLSDGWSSQPTCRKEHETCLAPELYNGNYSTTQKTFKVKDKVQYECATGYYTAGGKKTEEVECLTYGWSLTPKCTKLKCSSLRLIENGYFHPVKQTYEEGDVVQFFCHENYYLSGSDLIQCYNFGWYPESPVCEGRRNRCPPPPLPINSKIQTHSTTYRHGEIVHIECELNFEIHGSAEIRCEDGKWTEPPKCIEGQEKVACEEPPFIENGAANLHSKIYYNGDKVTYACKSGYLLHGSNEITCNRGKWTLPPECVENNENCKHPPVVMNGAVADGILASYATGSSVEYRCNEYYLLRGSKISRCEQGKWSSPPVCLEPCTVNVDYMNRNNIEMKWKYEGKVLHGDLIDFVCKQGYDLSPLTPLSELSVQCNRGEVKYPLCTRKESKGMCTSPPLIKHGVIISSTVDTYENGSSVEYRCFDHHFLEGSREAYCLDGMWTTPPLCLEPCTLSFTEMEKNNLLLKWDFDNRPHILHGEYIEFICRGDTYPAELYITGSILRMQCDRGQLKYPRCIPRQSTLSYQEPLRT
notes: human coagulation factor XIII B subunit from plasma, ten Sushi domains; 80 kDa; also called FXIIIB; FXIIIB2; source: purified as FXIIIA2B2 from plasma concentrate Fibrogammin P (CSL Behring), gel filtration on Superdex 200
As to B1, the binding entry is recorded as “no binding”.

The record behind these values is publication PMC4958977, “Revisiting the mechanism of coagulation factor XIII activation and regulation from a structure/functional perspective” (Scientific Reports, 2016).
